The source of these data is patent US20240327530A1.

Amino acid sequences for entries named in this document (tags omitted). A change or cut given only in a name is not applied to a line headed by its entry.
UniProt Q9NPH3: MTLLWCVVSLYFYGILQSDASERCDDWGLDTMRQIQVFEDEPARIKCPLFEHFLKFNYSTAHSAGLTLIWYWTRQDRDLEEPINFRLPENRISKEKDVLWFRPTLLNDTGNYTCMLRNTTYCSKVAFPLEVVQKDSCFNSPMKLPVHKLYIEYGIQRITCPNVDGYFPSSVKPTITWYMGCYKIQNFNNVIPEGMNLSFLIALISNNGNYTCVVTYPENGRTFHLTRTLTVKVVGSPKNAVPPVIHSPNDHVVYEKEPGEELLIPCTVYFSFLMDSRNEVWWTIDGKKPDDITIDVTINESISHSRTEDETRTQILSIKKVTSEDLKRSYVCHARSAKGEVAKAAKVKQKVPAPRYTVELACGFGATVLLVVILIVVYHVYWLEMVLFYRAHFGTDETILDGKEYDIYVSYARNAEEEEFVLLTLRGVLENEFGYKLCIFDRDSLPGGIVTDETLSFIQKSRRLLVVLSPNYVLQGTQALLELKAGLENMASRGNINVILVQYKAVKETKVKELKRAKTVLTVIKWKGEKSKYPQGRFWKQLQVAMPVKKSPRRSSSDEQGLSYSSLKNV
UniProt P14778: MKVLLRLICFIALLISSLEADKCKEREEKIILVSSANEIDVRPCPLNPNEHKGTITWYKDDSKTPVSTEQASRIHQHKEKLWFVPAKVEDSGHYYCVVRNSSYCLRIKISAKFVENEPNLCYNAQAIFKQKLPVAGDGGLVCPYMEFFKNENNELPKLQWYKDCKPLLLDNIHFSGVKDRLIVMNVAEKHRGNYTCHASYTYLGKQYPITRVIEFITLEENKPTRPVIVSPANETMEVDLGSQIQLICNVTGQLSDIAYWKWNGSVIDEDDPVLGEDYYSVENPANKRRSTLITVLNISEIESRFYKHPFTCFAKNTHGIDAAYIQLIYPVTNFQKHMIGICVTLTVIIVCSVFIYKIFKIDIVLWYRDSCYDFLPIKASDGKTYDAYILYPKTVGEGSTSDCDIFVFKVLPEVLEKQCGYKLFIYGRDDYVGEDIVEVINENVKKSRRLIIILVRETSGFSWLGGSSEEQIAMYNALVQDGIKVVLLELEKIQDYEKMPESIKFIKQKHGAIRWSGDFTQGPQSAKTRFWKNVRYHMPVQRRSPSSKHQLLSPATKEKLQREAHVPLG

No constants are given. Whether binding was seen depends on the method and setting. Some results given as binding are weak or reduced against the parent protein; the word gives no strength.

For this experiment, the target named is Recombinant human IL-1RAP Fc fusion protein (Acrobiosystems, catalog no. ILP-H5256) (human) (UniProt Q9NPH3). The experiment is described as follows: SPR, second injection of premixed IL-1R1 50 nM + IL-1β 100 nM + Fab 300 nM over captured human IL-1RAP Fc saturated with the non-blocking anti-IL-1RAP-E1 Fab.

With “IL-1R1/IL-1β receptor/cytokine complex (from UniProt P14778 18-332; P01584 117-269)”, the binding entry was “binds”.
